From PubChem BioAssay AID248 (DTP/NCI, 2004)
The list does not hold the whole screen: it gathers tests that were run many times, whatever their T/C, doses with no T/C, and many T/C values between a quarter and a half above the control. Other doses and runs of a compound stand elsewhere. T/C is the treated group as % of the vehicle group. Some doses have a count of surviving animals in place of a T/C: the source files T/C as zero there, which appears to mark a toxic dose or a test without result, not a measured value. Some survivor counts are full or nearly so, which does not show that the dose was tolerated: the source hardly ever lists a survival T/C far under the control, and the zero likely stands for such cases as well. Counts of survivors are from the toxicity check (mostly the fifth day) where no day follows; animals may have died later. Schedule codes are those of the source, taken here to give the interval after Q, in days (D) or hours (H), and the number of doses after X. Where survival is the endpoint, this PubChem deposit counts one and a half times the control or more as active, and values a quarter to a half above the control carry no call in these data; other NCI protocols may use other cut-offs. Some entries hold several experiments; their values stand side by side, smallest first. Some schedules carry Z or #; the key to these is not given. Some T/C values are followed by the survivors on the day toxicity was checked, most often the fifth; without a count, all were alive then.

Test system: L1210 leukemia ip in BDF1 mice, survival T/C
Assay: NCI In Vivo Anticancer Drug Screen. Data for tumor model L1210 Leukemia (intraperitoneal) in B6D2F1 (BDF1) mice
Details: higher T/C = longer survival
[1] = T/C endpoint: mean survival time, dose: 400.0 mg/kg/injection, schedule: Q01DX009 (ip), vehicle: saline with Tween-80
[2] = T/C endpoint: mean survival time, dose: 200.0 mg/kg/injection, schedule: Q01DX009 (ip), vehicle: Klucel (hydroxypropylcellulose) (HPC)
[3] = T/C endpoint: mean survival time, dose: 400.0 mg/kg/injection, schedule: Q04DX003 (ip), vehicle: saline
[4] = T/C endpoint: mean survival time, dose: 100.0 mg/kg/injection, schedule: Q04DX002 (ip), vehicle: Klucel (hydroxypropylcellulose) (HPC)
[5] = T/C endpoint: mean survival time, dose: 400.0 mg/kg/injection, schedule: Q01DX009 (ip), vehicle: Klucel (hydroxypropylcellulose) (HPC)

For `CCCN=Cc1ccccc1O.CCCN=Cc1ccccc1O.[Cu]`, the survivor count (T/C endpoint: mean survival time, dose: 75.0 mg/kg/injection, schedule: Q01DX001 (ip), vehicle: other) was 0 of 6, the survivor count (T/C endpoint: mean survival time, dose: 150.0 mg/kg/injection, schedule: Q01DX001 (ip), vehicle: other) was 1 of 6 and the survivor count (T/C endpoint: mean survival time, dose: 300.0 mg/kg/injection, schedule: Q01DX001 (ip), vehicle: other) was 0 of 6.

In the case of `O=[N+]([O-])c1ccc2c(c1)c(-c1cc(Cl)cc(Cl)c1)nc1ccccc12`, the survivor count [1] is reported as 6 of 6.

With `NNc1ncnc2c(C3OC(CO)C(O)C3O)[nH]nc12` (stereo not drawn) the T/C (T/C endpoint: mean survival time, dose: 75.0 mg/kg/injection, schedule: Q01DX009 (ip), vehicle: saline) was 146 % of control, the T/C (T/C endpoint: mean survival time, dose: 100.0 mg/kg/injection, schedule: Q01DX005 (ip), vehicle: Klucel (hydroxypropylcellulose) (HPC)) was 147 % of control and the T/C (T/C endpoint: mean survival time, dose: 100.0 mg/kg/injection, schedule: Q01DX005 (ip), vehicle: saline) was 127, 130, 146 % of control. The T/C (T/C endpoint: mean survival time, dose: 100.0 mg/kg/injection, schedule: Q01DX009 (ip), vehicle: water) was 130 % of control, the T/C (T/C endpoint: mean survival time, dose: 150.0 mg/kg/injection, schedule: Q01DX009 (ip), vehicle: water) was 127 % of control and the T/C (T/C endpoint: mean survival time, dose: 200.0 mg/kg/injection, schedule: Q01DX005 (ip), vehicle: saline) was 130 and 147 % of control. The T/C [2] was 133 % of control, the survivor count (T/C endpoint: mean survival time, dose: 300.0 mg/kg/injection, schedule: Q01DX005 (ip), vehicle: saline) was 1 of 6 and the survivor count (T/C endpoint: mean survival time, dose: 300.0 mg/kg/injection, schedule: Q01DX009 (ip), vehicle: Klucel (hydroxypropylcellulose) (HPC)) was 5 of 6. The survivor count (T/C endpoint: mean survival time, dose: 300.0 mg/kg/injection, schedule: Q01DX009 (ip), vehicle: saline) was 2 of 10, the survivor count [3] was 5 of 10 and the survivor count (T/C endpoint: mean survival time, dose: 400.0 mg/kg/injection, schedule: Q08DX002 (ip), vehicle: saline) was 2 of 10.

`COc1ccccc1OCCOCCN(C)C1CCCCC1` was tested, and the survivor count (T/C endpoint: mean survival time, dose: 100.0 mg/kg/injection, schedule: Q01DX009 (ip), vehicle: Klucel (hydroxypropylcellulose) (HPC)) was 0 of 6, the survivor count [4] was 2 of 3 and the survivor count [2] was 0 of 6. The survivor count [5] was 0 of 6.

In the case of `CCN(CC)CCCC(C)NC(=O)c1cc(=O)[nH]c(=O)[nH]1` (stereo not drawn), the survivor count (T/C endpoint: mean survival time, dose: 200.0 mg/kg/injection, schedule: Q01DX009 (ip), vehicle: water) is reported as 3 of 6, the survivor count (T/C endpoint: mean survival time, dose: 400.0 mg/kg/injection, schedule: Q01DX009 (ip), vehicle: water) is reported as 0 of 6 and the survivor count (T/C endpoint: mean survival time, dose: 400.0 mg/kg/injection, schedule: Q04DX003 (ip), vehicle: water) is reported as 0 of 6.

In the case of `CC(=O)Nc1ccc2c(c1)C(N(C)C)c1ccccc1-2` (stereo not drawn), the survivor count (T/C endpoint: mean survival time, dose: 200.0 mg/kg/injection, schedule: Q01DX001 (ip), vehicle: carboxymethylcellulose (CMC)) is reported as 1 of 4 and the survivor count (T/C endpoint: mean survival time, dose: 400.0 mg/kg/injection, schedule: Q01DX001 (ip), vehicle: carboxymethylcellulose (CMC)) is reported as 0 of 4.

`CC1CC(C)(C)N/C(=C/C(=O)N2Cc3cc4ccccc4nc3C2)O1` (stereo not drawn) was tested, and the survivor count (T/C endpoint: mean survival time, dose: 200.0 mg/kg/injection, schedule: Q01DX001 (ip), vehicle: Klucel (hydroxypropylcellulose) (HPC)) was 6 of 6.

For `COc1cc(C=O)ccc1OC(=O)Nc1cccc(C(C)=O)c1`, the survivor count [5] was 1 of 6.

For `O=C(ON=C(c1ccc(Cl)cc1)c1ccc(Cl)cc1)c1ccc(Cl)cc1`, the T/C (T/C endpoint: median survival time, dose: 108.0 mg/kg/injection, schedule: Q01DX009 (ip), vehicle: Klucel (hydroxypropylcellulose) (HPC), evaluated on day 5) was 138 % of control, the T/C (T/C endpoint: median survival time, dose: 108.0 mg/kg/injection, schedule: Q01DX009 (ip), vehicle: Klucel (hydroxypropylcellulose) (HPC), evaluated on day 19) was 138 % of control and the T/C (T/C endpoint: median survival time, dose: 180.0 mg/kg/injection, schedule: Q01DX009 (ip), vehicle: Klucel (hydroxypropylcellulose) (HPC), evaluated on day 5) was 127 % of control. For the same molecule, the T/C (T/C endpoint: median survival time, dose: 180.0 mg/kg/injection, schedule: Q01DX009 (ip), vehicle: Klucel (hydroxypropylcellulose) (HPC), evaluated on day 19) was 127 % of control [7 of 8 alive] and the survivor count (T/C endpoint: median survival time, dose: 833.0 mg/kg/injection, schedule: Q01DX009 (ip), vehicle: Klucel (hydroxypropylcellulose) (HPC)) was 5 of 8.

With `CC1(C)COC(Cc2ccccc2)=N1` the survivor count [3] was 0 of 6.

For `CCN(CC)C(=O)C1C2C=CC(C2)C1C(=O)N(CC)CC` (stereo not drawn), the survivor count (T/C endpoint: mean survival time, dose: 400.0 mg/kg/injection, schedule: Q04DX003 (ip), vehicle: saline with Tween-80) was 0 of 3.

In the case of `CN1c2ccc(Cl)cc2C2(C(=O)NN)C(C(=O)NN)N(C3CCCCC3)C(=O)C12N` (stereo not drawn), the survivor count [1] is reported as 1 of 6.

With `CCN(CC)CC#N` the survivor count (T/C endpoint: mean survival time, dose: 16.0 mg/kg/injection, schedule: Q01DX009 (ip), vehicle: saline) was 3 of 6 and the survivor count (T/C endpoint: mean survival time, dose: 32.0 mg/kg/injection, schedule: Q01DX009 (ip), vehicle: saline) was 0 of 6.

For `FCCCC1CCCCN1` (stereo not drawn), the survivor count (T/C endpoint: mean survival time, dose: 100.0 mg/kg/injection, schedule: Q01DX009 (ip), vehicle: saline) was 0 of 3 and the survivor count (T/C endpoint: mean survival time, dose: 200.0 mg/kg/injection, schedule: Q01DX009 (ip), vehicle: saline) was 0 of 3.

For `O=S(=O)(O)F`, the survivor count (T/C endpoint: mean survival time, dose: 400.0 mg/kg/injection, schedule: Q01DX001 (ip), vehicle: saline) was 2 of 6.

`CC1C(c2ccccc2)N1P(I)(c1ccccc1)(c1ccccc1)c1ccccc1` (stereo not drawn) was tested, and the survivor count (T/C endpoint: mean survival time, dose: 30.0 mg/kg/injection, schedule: Q01DX001 (ip), vehicle: carboxymethylcellulose (CMC)) was 3 of 6, the survivor count (T/C endpoint: mean survival time, dose: 60.0 mg/kg/injection, schedule: Q01DX001 (ip), vehicle: carboxymethylcellulose (CMC)) was 3 of 6 and the survivor count (T/C endpoint: mean survival time, dose: 75.0 mg/kg/injection, schedule: Q01DX001 (ip), vehicle: carboxymethylcellulose (CMC)) was 1 of 6. The survivor count (T/C endpoint: mean survival time, dose: 150.0 mg/kg/injection, schedule: Q01DX001 (ip), vehicle: carboxymethylcellulose (CMC)) was 0 of 6 and the survivor count (T/C endpoint: mean survival time, dose: 300.0 mg/kg/injection, schedule: Q01DX001 (ip), vehicle: carboxymethylcellulose (CMC)) was 0 of 6.

`CNC(=O)N(C)N=O` was tested, and the T/C (T/C endpoint: mean survival time, dose: 25.0 mg/kg/injection, schedule: Q01DX Z (ip), vehicle: carboxymethylcellulose (CMC)) was 125 % of control and the T/C (T/C endpoint: mean survival time, dose: 50.0 mg/kg/injection, schedule: Q01DX Z (ip), vehicle: carboxymethylcellulose (CMC)) was 136 and 146 % of control.

In the case of `CCN(CC)CC(=O)NC(CCN(C)C)(c1cccc2ccccc12)C(C)C` (stereo not drawn), the survivor count [3] is reported as 0 of 6.

`CCC[CH2][Sn]1([CH2]CCC)[O]OC(c2ccc(C)cc2)[O]1` (stereo not drawn) was tested, and the survivor count (T/C endpoint: mean survival time, dose: 50.0 mg/kg/injection, schedule: Q01DX009 (ip), vehicle: Klucel (hydroxypropylcellulose) (HPC)) was 0 of 3, the survivor count (T/C endpoint: mean survival time, dose: 50.0 mg/kg/injection, schedule: Q04DX002 (ip), vehicle: Klucel (hydroxypropylcellulose) (HPC)) was 3 of 3 and the survivor count [4] was 0 of 3. The survivor count (T/C endpoint: mean survival time, dose: 200.0 mg/kg/injection, schedule: Q04DX002 (ip), vehicle: Klucel (hydroxypropylcellulose) (HPC)) was 0 of 3 and the survivor count (T/C endpoint: mean survival time, dose: 400.0 mg/kg/injection, schedule: Q04DX002 (ip), vehicle: Klucel (hydroxypropylcellulose) (HPC)) was 0 of 3.

For `C[N+](C)(C)Cc1c[nH]c2ccsc12`, the survivor count (T/C endpoint: mean survival time, dose: 25.0 mg/kg/injection, schedule: Q01DX001 (ip), vehicle: saline with Tween-80) was 1 of 6, the survivor count (T/C endpoint: mean survival time, dose: 50.0 mg/kg/injection, schedule: Q01DX001 (ip), vehicle: saline with Tween-80) was 2 of 6 and the survivor count (T/C endpoint: mean survival time, dose: 100.0 mg/kg/injection, schedule: Q01DX001 (ip), vehicle: saline with Tween-80) was 0 of 6. The survivor count (T/C endpoint: mean survival time, dose: 200.0 mg/kg/injection, schedule: Q01DX001 (ip), vehicle: saline with Tween-80) was 0 of 6 and the survivor count (T/C endpoint: mean survival time, dose: 400.0 mg/kg/injection, schedule: Q01DX001 (ip), vehicle: saline with Tween-80) was 0 of 6.

`Cc1no[n+]([O-])c1[N+](=O)[O-]` was tested, and the survivor count (T/C endpoint: mean survival time, dose: 40.0 mg/kg/injection, schedule: Q04DX003 (ip), vehicle: saline) was 2 of 6, the survivor count (T/C endpoint: mean survival time, dose: 80.0 mg/kg/injection, schedule: Q04DX003 (ip), vehicle: saline) was 0 of 6 and the survivor count (T/C endpoint: mean survival time, dose: 100.0 mg/kg/injection, schedule: Q04DX003 (ip), vehicle: Klucel (hydroxypropylcellulose) (HPC)) was 0 of 6. The survivor count (T/C endpoint: mean survival time, dose: 200.0 mg/kg/injection, schedule: Q04DX003 (ip), vehicle: Klucel (hydroxypropylcellulose) (HPC)) was 0 of 6 and the survivor count (T/C endpoint: mean survival time, dose: 400.0 mg/kg/injection, schedule: Q04DX003 (ip), vehicle: Klucel (hydroxypropylcellulose) (HPC)) was 0 of 6.
